Percent effect of library compounds

Chains of the proteins cited; added tags and fusions are not shown. Residues count along the entry.
UniProt Q4DA54, 1-478: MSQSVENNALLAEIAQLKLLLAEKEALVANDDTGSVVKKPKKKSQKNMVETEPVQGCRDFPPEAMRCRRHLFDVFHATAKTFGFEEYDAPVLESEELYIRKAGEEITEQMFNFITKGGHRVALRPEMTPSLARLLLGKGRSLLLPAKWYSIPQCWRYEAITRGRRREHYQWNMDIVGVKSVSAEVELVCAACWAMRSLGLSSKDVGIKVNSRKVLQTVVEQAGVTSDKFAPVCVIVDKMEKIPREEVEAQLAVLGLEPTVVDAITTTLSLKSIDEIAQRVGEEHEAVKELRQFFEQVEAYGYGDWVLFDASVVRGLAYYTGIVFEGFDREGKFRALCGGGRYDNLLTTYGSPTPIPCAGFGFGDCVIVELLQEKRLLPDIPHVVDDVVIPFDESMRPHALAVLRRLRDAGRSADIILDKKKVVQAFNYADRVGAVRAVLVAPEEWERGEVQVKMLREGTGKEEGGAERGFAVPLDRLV

Data taken from ChEMBL document CHEMBL3988442, “University of Dundee, Small-Polar-MMV Screening Library” (2021).

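Histidine-tRNA ligase, Trypanosoma cruzi CL Brener (UniProt Q4DA54). Enzyme assay of histidyl-tRNA synthetase; the read-out is not stated. Compounds at 30 µM. Direction is inferred from retests: higher values go with stronger inhibition. Size under these conditions: about 69,000 compounds, about 31 of them at 50% or above in at least one test.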

Each number is a percent effect as filed.
The record does not define 0% and 100%; most values in the screen are far below 50% and negative numbers occur (in some assays of this library far below -100).
This is an unselected part of the compounds tested.

| SMILES | percent effect |
|---|---|
| `O=C(NC[C@H]1OC[C@@H]2CCN(Cc3ccco3)C[C@@H]21)c1ccnnc1` | 10.05 |
| `Cn1cc(CN2CCc3c(cnc(-c4ccccc4)c3C(=O)O)C2)cn1` | 6.952 |
| `CCCc1cc(N2CCC(N[C@H]3CC[C@H](O)CC3)CC2)nc(C)n1` | 2.899 |
| `O=C(Nc1cc(C(F)(F)F)c[nH]c1=O)c1ccco1` | -5.303 |
| `NC(=O)C1(c2cnccn2)CCCN1Cc1ccccn1` (centres unmarked) | 8.889 |
| `Cc1cc(-c2ccc(=O)n(CCNC(=O)C3CCC3)n2)c(C)o1` | -0.2857 |
| `CC(=O)c1cc(C(=O)NC2(c3ccc(Br)cc3)CC2)n(C)c1` | 3.185 |
| `CCCN(Cc1nccn1C)C(=O)c1cc(C(C)C)on1` | -8.696 |
| `Cc1ccc(C)c(-n2ncc(NC(=O)NC3(C)CCOC3)c2C)c1` (centres unmarked) | 7.263 |
| `COCC(=O)N(Cc1cccnc1)CC1CCCN(C2CCCCC2)C1` (centres unmarked) | 5.102 |
| `CNc1cc2c(nn1)CCN(C(=O)c1cc(C)no1)C2` | 0.2915 |
| `CCCOc1ccc2c(c1)OCC(C(=O)NC(C)Cn1cccn1)=C2` (centres unmarked) | 1.63 |
| `Cc1ccc(-n2nnc(CC(=O)N3CCSCC3)c2C)cc1` | -1.674 |
| `Cc1ccc(CN2Cc3nccn3CC(Cn3cncn3)C2)s1` (centres unmarked) | 12.06 |
| `O=C(c1cscn1)N1CC[C@@H]2[C@@H]1CCN2C1CCOCC1` | 1.111 |
| `CC(C)Cn1ncc(C(=O)O)c1C1CC1` | -2.679 |
| `CCN(Cc1ccco1)C(C)c1nc(C(C)C)no1` (centres unmarked) | 1.064 |
| `CN1CCC(N(Cc2ccco2)S(=O)(=O)c2cc(Br)ccc2Br)CC1` | 3.061 |
| `O=S(=O)(Nc1cnn(C2CCOCC2)c1)c1ccc(Br)cc1` | 5.528 |
| `O=C(NCc1cccnc1)C1=NOC2(CCN(C(=O)N3CCCC3)C2)C1` (centres unmarked) | 5.882 |
| `Cc1ccc2c(c1)c(CNC(=O)C1CCN(C(=O)C3CC3)CC1)nn2C` | 6.818 |
| `Cn1ccnc1CN1CCC2(CC1)COC2` | 1.676 |
| `CCOC[C@@]12CCC[C@@H]1CN(C(=O)COc1ccccc1OC)C2` | -3.175 |
| `CC(C)CN1C[C@@H]2CN(C(=O)[C@H]3CCCO3)C[C@@H]2C1=O` | 2.256 |
| `Cc1noc(C(C)N(C)Cc2ccco2)n1` (centres unmarked) | 3.191 |
| `Cc1cnc(N)c(C(=O)C2CCN(C(=O)C3CCC3)CC2)c1` | -0.7491 |
| `COc1ccc(N2Cc3nc(=O)n(C(C)C)n3C2=O)cc1` | 0.5848 |
| `O=C(Cc1ccccn1)N1CCC2(CCCN(CC3CCOCC3)C2)C1` (centres unmarked) | 6.522 |
| `CC(=O)N1CCC(Cc2cnc(-c3c(C)n[nH]c3C)cn2)C1` (centres unmarked) | -3.825 |
| `O=C(c1cccc2c1OCCO2)N1CCCC(n2ccnc2)C1` (centres unmarked) | 3.422 |
| `COc1cccn(CC(=O)N(C)CCOc2cc(C)cc(C)c2)c1=O` | 22.31 |
| `Cc1nn(CCC#N)c(C)c1[C@@H]1C=C[C@@H](NCc2cccc(Cl)c2)C1` | 14.85 |
| `CN(CC(=O)NC1(C#N)CCCC1)C1CCCN(c2cccnn2)C1` (centres unmarked) | -0.7576 |
| `CC(C)CC(=O)N(C)Cc1nc(C(F)(F)F)cs1` | 1.01 |
| `CCn1c(Nc2ccccc2OC)nc2c(C)nn(C)c2c1=O` | 1.639 |
| `Cc1nonc1NC(=O)CCn1cc(Br)ccc1=O` | 1.961 |
| `Cc1ccc(N2CCCC(N3CCC4(CC3)OCCO4)C2=O)cc1` (centres unmarked) | 10.34 |
| `O=C(Cc1ccsc1)N1CCC(n2nc(-c3ccco3)ccc2=O)CC1` | 3.784 |
| `Cn1cnc(S(=O)(=O)N2CC3(CCN(CC4CC4)C3)C2)c1` | -1.508 |
| `CC(CNS(C)(=O)=O)c1ccc(F)c(F)c1` (centres unmarked) | 4.04 |
| `CCN1CCN(C2CCN(Cc3nc(CCOC)no3)CC2)C1=O` | 8 |
| `CC(NC1CCSCC1)c1ccccc1-n1cccn1` (centres unmarked) | 3.365 |
| `Cc1nc(N)cc(C2CCN2CCC(N)=O)n1` (centres unmarked) | 7.28 |
| `Cn1cnc(-c2cc(C(=O)N3CCOCC3)c3ccccn23)c1` | -0.5525 |
| `CNc1cc(CNC(=O)c2ccccc2)nc(-c2ccncc2)n1` | 2.703 |
| `CC(=O)c1cc(CC(=O)N2CCCC2c2nc(C(C)C)no2)cs1` (centres unmarked) | 5.102 |
| `c1cc(CNCc2cccc3c2OCCCO3)cc(Cn2cncn2)c1` | 1.98 |
| `Cc1ccsc1C(=O)N1CCCn2nnc(Cn3cccn3)c2C1` | -3.448 |
| `COCC1CC2(CCN(Cc3ccccn3)CC2)CN1C(C)C` (centres unmarked) | 2.732 |
| `CNC(=O)C1CCCN(C(=O)c2cncs2)C1` (centres unmarked) | 2.825 |
| `CCCc1cc(=O)n(CC(N)=O)c(-n2nc(C)cc2C)n1` | 4.348 |
| `Cc1cc(C(=O)NC2CC(=O)N(C(C)C)C2=O)c(C)n1C(C)C` (centres unmarked) | 4.762 |
| `CCOCCC(=O)N1CCCC(c2ncc[nH]2)C1` (centres unmarked) | 4.132 |
| `CCC(C)(C)NC(=O)Nc1nnc(-c2ccccn2)s1` | 8.442 |
| `Cc1nc(C)n(C2CCCN(C(=O)c3nc(C)n4ccccc34)C2)n1` (centres unmarked) | -1.681 |
| `O=C(c1ccc2ccc(N3CCN(CC4CC4)CC3)n2c1)N1CCCO1` | 19.61 |
| `CCNC(=O)[C@@H]1C[C@@H](NC(=O)c2cnc[nH]c2=O)CN1Cc1ccsc1` | -2.424 |
| `CC(C)C1SCC(=O)Nc2c1cnn2C(C)C` (centres unmarked) | 0.5848 |
| `CC(C)C(O)C1CCN(c2ccnc(C(=O)NCc3ccco3)c2)CC1` (centres unmarked) | 5.195 |
| `O=C(NS(=O)(=O)c1cccc(C(F)(F)F)c1)c1cscn1` | 13.25 |
| `O=C(NCCc1ccncc1)[C@@H]1CC[C@@H]2[C@@H](CCN2Cc2ccco2)O1` | 6.863 |
| `CNC(=O)CC1CCN(C(=O)NCC2(c3ccccc3F)CC2)CC1` | 1.724 |
| `CN(C)CC1CN(Cc2nnc(C(C)(C)C)o2)CCO1` (centres unmarked) | 0 |
| `CCc1n[nH]c(C2CN(C(=O)Cc3cccs3)CCO2)n1` (centres unmarked) | 5.983 |
| `CCOc1ccc2[nH]c(=O)c(CN3CCCC3c3ccccn3)cc2c1` (centres unmarked) | 19.34 |
| `Cc1cc2cc(NC(=O)Cn3ncc(N4CCCC4)cc3=O)ccc2o1` | 1.754 |
| `CC(C)(CO)Nc1ccc(-c2nc(-c3ccccc3F)no2)cn1` | 3.784 |
| `CCOc1nc2cnccc2n(CC(=O)Nc2ccccc2OC)c1=O` | 9.548 |
| `NC(=O)C1CN(c2ccc3cc(Br)ccc3n2)CCO1` (centres unmarked) | 0.6135 |
| `CCn1cnnc1Cn1cccc(C(F)(F)F)c1=O` | 0 |
| `Cc1cnn(Cc2ccc(NC(=O)N[C@@H]3C=C[C@H](CO)C3)cc2)c1` | 2.463 |
| `c1cncc(CN2CCc3c(nnn3CC3CC3)C2COCC2CC2)c1` (centres unmarked) | 12.4 |
| `CN(C)C(=O)CN1C[C@@H]2CC[C@H](C1)N(Cc1cc(F)ccc1F)C2` | 3.306 |
| `CC(C)OC[C@H]1CCC[C@]12CN(S(=O)(=O)c1cn(C)cn1)CCO2` | -1.676 |
| `NC(=O)C1(c2cnccn2)CCCN1C(=O)Cc1ccsc1` (centres unmarked) | 4.545 |
| `CN1CCCCC1CCC(=O)NCCCn1ncc2ccccc21` (centres unmarked) | 2.155 |
| `Cc1nccc([C@H]2C[C@@H]3CCN(C(=O)c4c(C)noc4C)C[C@H]3O2)n1` | 5.785 |
| `CCc1cc(C(=O)NCC2CCN(Cc3ccncc3)CC2)on1` | 6.122 |
| `Cc1cc(C(=O)N2CCc3ncnc(-c4cnn(C)c4)c3CC2)c(C)o1` | 0.9346 |

7 of the entries, repeated:

* CCCc1cc(N2CCC(N[C@H]3CC[C@H](O)CC3)CC2)nc(C)n1 | 2.899%
* Cc1nc(N)cc(C2CCN2CCC(N)=O)n1 (centres unmarked) | 7.28%
* Cc1cc(C(=O)NC2CC(=O)N(C(C)C)C2=O)c(C)n1C(C)C (centres unmarked) | 4.762%
* Cc1cc(-c2ccc(=O)n(CCNC(=O)C3CCC3)n2)c(C)o1 | -0.2857%
* Cc1ccc(-n2nnc(CC(=O)N3CCSCC3)c2C)cc1 | -1.674%
* CC(C)OC[C@H]1CCC[C@]12CN(S(=O)(=O)c1cn(C)cn1)CCO2 | -1.676%
* c1cc(CNCc2cccc3c2OCCCO3)cc(Cn2cncn2)c1 | 1.98%